Patent US20090035818A1
No constants are given. Whether binding was seen depends on the method and setting. Some entries that bind do so weakly or less than the wild type.

Sequences of proteins named here, by UniProt entry; tags and fusion partners are left off. Residues count along the entry.
UniProt P01267, residues 20-2769: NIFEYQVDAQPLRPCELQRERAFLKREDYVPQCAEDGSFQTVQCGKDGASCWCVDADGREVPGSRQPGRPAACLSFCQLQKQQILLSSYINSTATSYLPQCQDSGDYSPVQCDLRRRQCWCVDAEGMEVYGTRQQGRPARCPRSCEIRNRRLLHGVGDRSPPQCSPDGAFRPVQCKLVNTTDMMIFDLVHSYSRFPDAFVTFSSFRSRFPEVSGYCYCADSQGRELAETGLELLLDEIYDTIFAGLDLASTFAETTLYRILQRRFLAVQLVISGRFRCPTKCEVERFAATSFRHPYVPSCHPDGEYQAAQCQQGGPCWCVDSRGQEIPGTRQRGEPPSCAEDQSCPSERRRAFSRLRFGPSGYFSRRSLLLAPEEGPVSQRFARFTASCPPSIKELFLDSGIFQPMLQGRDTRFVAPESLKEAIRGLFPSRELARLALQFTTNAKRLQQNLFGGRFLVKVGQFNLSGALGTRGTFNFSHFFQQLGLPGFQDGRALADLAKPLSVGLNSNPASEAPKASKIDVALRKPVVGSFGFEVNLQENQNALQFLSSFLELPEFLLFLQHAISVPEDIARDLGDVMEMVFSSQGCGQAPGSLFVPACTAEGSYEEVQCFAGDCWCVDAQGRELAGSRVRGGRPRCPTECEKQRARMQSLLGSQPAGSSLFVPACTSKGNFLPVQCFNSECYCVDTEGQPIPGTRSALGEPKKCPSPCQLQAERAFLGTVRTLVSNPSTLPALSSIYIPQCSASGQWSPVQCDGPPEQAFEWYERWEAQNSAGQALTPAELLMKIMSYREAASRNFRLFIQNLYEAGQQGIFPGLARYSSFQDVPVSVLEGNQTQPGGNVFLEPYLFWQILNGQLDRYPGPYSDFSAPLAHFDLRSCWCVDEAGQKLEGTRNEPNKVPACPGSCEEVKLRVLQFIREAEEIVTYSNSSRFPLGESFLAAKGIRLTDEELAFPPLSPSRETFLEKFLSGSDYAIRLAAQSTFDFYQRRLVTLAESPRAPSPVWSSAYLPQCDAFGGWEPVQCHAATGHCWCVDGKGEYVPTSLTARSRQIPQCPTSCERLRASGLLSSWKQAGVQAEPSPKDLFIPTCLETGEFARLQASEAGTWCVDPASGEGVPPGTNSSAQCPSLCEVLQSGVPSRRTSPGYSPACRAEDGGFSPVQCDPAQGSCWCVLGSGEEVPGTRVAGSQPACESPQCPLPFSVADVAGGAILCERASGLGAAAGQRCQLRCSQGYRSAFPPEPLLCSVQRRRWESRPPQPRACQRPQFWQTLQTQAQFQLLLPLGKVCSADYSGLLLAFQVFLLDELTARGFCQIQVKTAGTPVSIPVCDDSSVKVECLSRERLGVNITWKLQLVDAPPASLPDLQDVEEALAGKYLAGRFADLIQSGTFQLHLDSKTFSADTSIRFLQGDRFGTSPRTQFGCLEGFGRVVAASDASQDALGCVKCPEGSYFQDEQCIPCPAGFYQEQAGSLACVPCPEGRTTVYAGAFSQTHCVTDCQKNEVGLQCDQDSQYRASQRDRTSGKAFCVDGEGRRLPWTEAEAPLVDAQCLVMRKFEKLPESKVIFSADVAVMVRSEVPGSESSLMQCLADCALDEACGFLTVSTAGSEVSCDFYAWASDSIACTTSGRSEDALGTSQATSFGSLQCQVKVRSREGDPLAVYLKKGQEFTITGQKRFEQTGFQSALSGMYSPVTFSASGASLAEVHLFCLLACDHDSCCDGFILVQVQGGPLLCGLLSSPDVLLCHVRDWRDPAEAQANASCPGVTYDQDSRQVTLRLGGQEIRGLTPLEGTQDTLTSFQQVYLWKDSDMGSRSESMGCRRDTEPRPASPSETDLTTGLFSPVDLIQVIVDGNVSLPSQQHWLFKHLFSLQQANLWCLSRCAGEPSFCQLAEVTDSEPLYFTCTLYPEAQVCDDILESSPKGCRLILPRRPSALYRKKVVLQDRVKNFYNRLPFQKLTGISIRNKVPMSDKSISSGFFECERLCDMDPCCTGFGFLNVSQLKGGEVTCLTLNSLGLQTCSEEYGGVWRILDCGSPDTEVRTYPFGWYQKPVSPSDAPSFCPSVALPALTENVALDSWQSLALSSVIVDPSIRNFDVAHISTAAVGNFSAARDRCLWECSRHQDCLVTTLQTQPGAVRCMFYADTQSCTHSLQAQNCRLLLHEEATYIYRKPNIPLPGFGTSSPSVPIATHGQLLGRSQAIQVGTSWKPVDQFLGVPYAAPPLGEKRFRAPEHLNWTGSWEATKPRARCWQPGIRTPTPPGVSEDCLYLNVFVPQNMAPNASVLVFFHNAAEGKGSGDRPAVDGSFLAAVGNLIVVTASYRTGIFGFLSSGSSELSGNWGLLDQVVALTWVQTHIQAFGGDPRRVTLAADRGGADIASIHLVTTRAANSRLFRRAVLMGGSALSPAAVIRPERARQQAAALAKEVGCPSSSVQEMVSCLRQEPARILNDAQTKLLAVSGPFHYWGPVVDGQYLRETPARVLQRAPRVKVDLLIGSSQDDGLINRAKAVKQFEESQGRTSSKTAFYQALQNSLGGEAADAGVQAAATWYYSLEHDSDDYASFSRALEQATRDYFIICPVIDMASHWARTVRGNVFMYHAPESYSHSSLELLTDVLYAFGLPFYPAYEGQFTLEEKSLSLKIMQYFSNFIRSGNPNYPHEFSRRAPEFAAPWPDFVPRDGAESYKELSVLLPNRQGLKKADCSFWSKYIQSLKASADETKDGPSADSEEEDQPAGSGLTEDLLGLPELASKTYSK

Legend:
[1] = biological target: bovine tyroglobulin (cattle) (UniProt P01267); assay: SPR, bovine tyroglobulin (12,095 RU) on CM5 chip, lectin 100 µg/ml, elution with 0.5 M D-mannose
[2] = biological target: bovine tyroglobulin (cattle) (UniProt P01267); assay: SPR (Biacore), residual lectin on bovine tyroglobulin chip after HBS-EP wash and after 0.5 M D-mannose, relative to amount bound (100 %)
[3] = biological target: bovine tyroglobulin (cattle) (UniProt P01267); assay: SPR, bovine tyroglobulin on CM5 chip, lectin as analyte
[4] = biological target: bovine tyroglobulin (cattle) (UniProt P01267); assay: SPR (Biacore), bovine tyroglobulin immobilised on CM5 chip (12,095 RU), lectin 100 µg/ml in HBS-EP at 5 µl/min

Measured: binding

B1: Eucheuma serra-derived lectin ESA-2 (protein)
chain: GRYTVQNQWGGSSAPWNDAGLWILGSRGNQNVMAVDVNSSDGGANLNGTMTYSGEGPIGFKGARRGESNVYDVENQWGGSSAPWHAGGQFVIGSRSGQGVLAVNITSSDGGKTLTGTMTYEREGPIGFKGTQSGGDTYNVENQWGGSSAPWNKAGIWALGDRSGQAMIAMDVSSSDGGKTLEGTMQYKGEGPIGFRGKLSGANNYSVENQWGGSSAPWNAAGDWLIGDRHNQNITAVKVSSDNDGKNLDGTCTYEREGPIGFKGVATS
binds: all assays above
